In patent US20230406803A1, “TROPOLONE DERIVATIVES AND TAUTOMERS THEREOF FOR IRON REGULATION IN ANIMALS” (Kinesid Therapeutics, Inc, priority 2020, published 2023):
Some results were stated once for a whole list of compounds, not compound by compound.

System: mouse model of turpentine oil (TO)-induced anemia of inflammation
Assay: Turpentine oil induced anemia of inflammation
Assay type: in vivo
Details: TO model without hinokitiol as comparator; 100 mg/kg QD or 30 mg/kg BID
Procedure: Assay 3: Turpentine Oil Induced Anemia of Inflammation This is a model of anemia of inflammation by turpentine oil injection in combination with phlebotomy. Conditioning: Mice receive 3 doses of turpentine oil subcutaneously within 2 weeks. Mice are anesthetized and then administered 0.1 mL/20 g body weight of turpentine oil (TO) via subcutaneous injection in the scapular fat area using syringe and 27 G needle on Day 1, 7, and 14. On day 14, after the final injection of turpentine oil, a controlled 10% hemorrhage (approximately 200 uL) is accomplished via anesthetized orbital sinus bleed to increase the magnitude of anemia. The bleeding uses an orbital blood sampling technique, 200 uL capillary bleeding device (essentially a vacutainer tube with a glass capillary tube attached). […] Depth of anesthesia is monitored by toe pinch method. […] Data analysis: The iron mobilization impact of compounds is assessed based on the serum iron level, transferrin saturation and TIBC; the ability of test article to restore normal iron homeostasis and metabolism, and subsequent rescue of anemia, is assessed by comparing the hemoglobin and hematocrit levels of test article treated groups with vehicle treated group. Test articles were evaluated in the described mouse model of turpentine oil (TO)-induced anemia of inflammation (A of I). […]

Structure (SMILES): CC(C)Oc1cccc(=O)c(O)c1 [Ex. 16, 2-hydroxy-4-isopropoxycyclohepta-2,4,6-trien-1-one]
- increase of mean Hgb levels higher than vehicle: at least 0.4 g/dL
